Experimental data reported in patent publication US12371662B2, “Cell-based treatment and drug discovery in Hirschsprung's disease enabled by pluripotent stem cell-derived human enteric neural crest lineages” (MEMORIAL SLOAN-KETTERING CANCER CENTER, priority 2015, dated 2025).
At least one compound was matched to its structure with a doubt left.

System: hESC-derived NC precursors
Experiment: Neural crest induction of hESCs in presence of retinoic acid

Structure (SMILES): CC1=C(/C=C/C(C)=C/C=C/C(C)=C/C(=O)O)C(C)(C)CCC1 [RA, retinoic acid]
- expression of vagal HOX genes in CD49D+ NC precursors (RA 10 μM day 6 through day 11, qRT-PCR day 11): expressed HOXB2-B5
- effect on overall NC induction (Sox10::GFP+ yield) (RA exposure versus CNC conditions): does not interfere with overall NC induction
